Measured values reported in PubChem BioAssay AID2685 (National Center for Advancing Translational Sciences (NCATS), 2010).
This is one part of the list. The main result of the screen is listed elsewhere. These columns were measured beside it and carry no call. Most of these compounds were active or inconclusive in the main read-out, so they are no random draw. Words in brackets tell the shape of the fitted curve; partial curves, single points and poor fits give uncertain potencies.

Assay: qHTS Assay for Lipid Storage Modulators in Drosophila S3 Cells;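 as to cell number change: cells counted by Cell Tracker Red CMTPX staining in the red channel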
Conditions: BODIPY lipid droplet fluorescence, 18-24 h; for cell number change: measured here: cell count max response, cells fed with added oleic acid
Method in brief: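 Drosophila S3 cells got compounds at several concentrations plus oleic acid (400 uM solution). Laser-scanning cytometry with 488 nm excitation read lipid droplets at 500-530 nm and cells at 575-640 nm. Percent activity was relative to 20 uM Triacsin C.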

[1] = measured here: lipid fluorescence (Fed channel) AC50, cells fed with added oleic acid
[2] = measured here: cell number channel AC50, cells fed with added oleic acid

Row | Structure (SMILES) | cell number change [%] | AC50 [1] | AC50 [2]
1 | C=CCSc1nnc2c(n1)[nH]c1c(C)cccc12 | -14 | 1.46 µM [rising, full curve, poor fit] | –
2 | CCOc1ccc(-c2cc(CCCC(=O)Nc3cc(OC)ccc3OC)no2)cc1 | -8.65 | 20.6 µM [falling, single point] | –
3 | O=C(COc1ccc(F)cc1)N(c1ccccn1)C1CCCCC1 | -9.47 | 16.4 µM [falling, single point] | –
4 | Cc1ccc(-c2nc(NC(=O)CSc3cc(C)c4ccccc4n3)ns2)cc1 | 9.05 | 1.64 µM [rising, full curve, poor fit] | –
5 | CCOP(=O)(OCC)/C(C#N)=C/c1c[nH]c2ccccc12 | 6.7 | 6.51 µM [falling, single point] | 6.51 µM [falling, single point]
6 | O=C1CN(C(=O)c2cc([N+](=O)[O-])ccc2Cl)C(c2ccc(F)cc2)c2cc(F)ccc2N1 (centres undefined) | -43.5 | 1.64 µM [falling, partial curve] | 0.291 µM [falling, full curve]
7 | CCCCN(C)C(=O)c1cc2cc([N+](=O)[O-])cc(OC)c2oc1=O | 36.6 | – | 29.1 µM [rising, single point]
8 | Cc1cc(=O)oc2cc(OCC(=O)OC(C)C(=O)NC3CCCC3)ccc12 (centres undefined) | -53.6 | 6.51 µM [falling, partial curve] | 29.1 µM [falling, single point]
9 | CCOC(=O)C(=NCCCN(C)C)NNc1cc(C(F)(F)F)ccc1Cl | 22.2 | 5.17 µM [rising, full curve, poor fit] | –
10 | CN(Cc1nc2ccccc2c(=O)[nH]1)C(=O)c1ccccc1OCc1ccc(Cl)cc1 | 27.3 | 32.6 µM [rising, partial curve] | –
11 | COc1cc(OC)cc(-c2c(-c3cccs3)c3cc(-c4ccc(OC)cc4F)ccc3n2C)c1 | -3.16 | – | 1.16 µM [rising, single point]
12 | Cc1cc2oc(=O)cc(CN3CCC(C)CC3)c2cc1Cl | -16.1 | 2.31 µM [falling, partial curve] | –
13 | Cc1cccc(NC(=O)C(C)C(=O)c2ccccc2)c1 (centres undefined) | -22.5 | – | –
14 | COc1ccc2c(c1)[C@H]1[C@H](CO2)[C@H](c2ccccc2)[C@]2(C)C(=O)N[C@@H](C)C(=O)N12 | 18.3 | 0.116 µM [rising, full curve, poor fit] | 0.164 µM [rising, full curve, poor fit]
15 | Cc1ccc(C2CC(=O)Nc3sc(C(N)=O)c(N)c32)cc1 (centres undefined) | -8.16 | – | –
16 | CCOCC(=O)Nc1cc(C(=O)Nc2cccc(C)c2C)ccc1Cl | 95.1 | – | 29.1 µM [rising, single point]
17 | COc1ccc(S(=O)(=O)N2CCC(C(=O)Nc3cccc(Cl)c3)CC2)cc1OC | 13.6 | – | –
18 | COc1ccc(S(=O)(=O)N2CCC(C(=O)NCc3ccccn3)CC2)cc1OC | 14.3 | – | 6.51 µM [rising, single point]
19 | COCC(C)N=Cc1c(O)[nH]c2ccccc12 (centres undefined) | – | 0.461 µM [rising, partial curve, poor fit] | –

Whole records, quoted from the list.
COc1ccc2c(c1)[C@H]1[C@H](CO2)[C@H](c2ccccc2)[C@]2(C)C(=O)N[C@@H](C)C(=O)N12 is entered as cell number change [%]: 18.3; AC50 [1]: 0.116 µM [rising, full curve, poor fit]; AC50 [2]: 0.164 µM [rising, full curve, poor fit]
Cc1cc(=O)oc2cc(OCC(=O)OC(C)C(=O)NC3CCCC3)ccc12 (centres undefined) is entered as cell number change [%]: -53.6; AC50 [1]: 6.51 µM [falling, partial curve]; AC50 [2]: 29.1 µM [falling, single point]

Next part.

Row | Structure (SMILES) | cell number change [%] | AC50 [1] | AC50 [2]
20 | CC(C)CCNC(=O)c1ccccc1SCC(=O)NC1CCCCCCC1 | -11.1 | 0.326 µM [falling, full curve, poor fit] | –
21 | CCN(CC(=O)Nc1ccc(NC(C)=O)cc1)C(=O)c1c(-c2c(F)cccc2Cl)noc1C | 16.2 | – | –
22 | CCCCc1ccc(S(=O)(=O)Nc2cc(C)on2)cc1 | – | 0.58 µM [falling, single point] | –
23 | COc1ccc(/C=C/C(=O)NC(=S)NN2CCCCC2c2cccnc2)cc1 (centres undefined) | -6.17 | 0.366 µM [rising, single point] | –
24 | CCOc1ccc(N)cc1OC | 19.4 | 1.3 µM [rising, full curve] | 1.16 µM [rising, single point]
25 | CN(CC(=O)Nc1ccc(F)cc1)C(=O)COC(=O)CCN1C(=O)C2CC=CCC2C1=O (centres undefined) | – | 16.4 µM [rising, partial curve, poor fit] | –
26 | C[C@@H](C(O)c1ccccc1)N(C)C(=O)CCc1ccccc1 (some centres undefined) | 28.5 | 29.1 µM [rising, single point] | –
27 | CCN(CC(=O)NCc1ccc(F)cc1)Cc1nc2ccccc2c(=O)[nH]1 | -0.628 | 3.26 µM [rising, partial curve, poor fit] | –
28 | CCCCN(CCCC)C(=O)/C=C/c1cccc([N+](=O)[O-])c1 | – | 3.66 µM [rising, partial curve] | –
29 | CC(=O)Nc1ccc(NC(=O)C2CCN(C(=O)C3CC(=O)N(c4ccc(C)cc4)C3)CC2)cc1 (centres undefined) | 33.3 | – | 2.06 µM [rising, partial curve, poor fit]
30 | O=C1CCN(C(=O)Nc2ccccc2)N1 | -11 | 0.82 µM [falling, full curve, poor fit] | –
31 | CCN1CCc2c(sc(NC(=O)c3ccc(S(=O)(=O)N(C)c4ccccc4)cc3)c2C(=O)NC)C1 | -28 | 0.82 µM [falling, full curve, poor fit] | 1.3 µM [falling, full curve]
32 | CC(=O)c1ccc(NS(=O)(=O)c2ccc3c(c2)N(C)CCO3)cc1 | -0.895 | 29.1 µM [rising, single point] | –
33 | O=C(c1c(F)cccc1F)N1CCN(c2ncccn2)CC1 | 23.6 | – | –
34 | CCOc1ccccc1N/C(=C(/C(Cl)=C(Cl)Cl)[N+](=O)[O-])n1cncn1 | -34.4 | 20.6 µM [falling, single point] | 16.4 µM [falling, single point]
35 | Cc1ccc(Cl)cc1N1CCN(S(=O)(=O)c2ccc3c(c2)oc(=O)n3C)CC1 | 10.1 | 4.61 µM [rising, full curve] | –
36 | O=C(COc1coc(CN2CCN(c3cccc(Cl)c3)CC2)cc1=O)NC1CCCC1 | 50 | 0.164 µM [falling, full curve, poor fit] | 20.6 µM [rising, single point]
37 | Cn1c(-c2ccsc2)c(-c2cccs2)c2cc(-c3ccc4[nH]ccc4c3)ccc21 | -39.6 | 6.51 µM [falling, partial curve, poor fit] | 0.0651 µM [falling, full curve, poor fit]
